Measured values published in article PMC5088687.
These are yes or no findings as the source states them, for the method shown. Binding seen in cells or lysates may run through a third protein. Some binding calls cover weakened binding; strength is not graded here. Sequences can lack the tags named with a protein.

Amino acid sequences for entries named in this document (tags omitted).
UniProt Q61818: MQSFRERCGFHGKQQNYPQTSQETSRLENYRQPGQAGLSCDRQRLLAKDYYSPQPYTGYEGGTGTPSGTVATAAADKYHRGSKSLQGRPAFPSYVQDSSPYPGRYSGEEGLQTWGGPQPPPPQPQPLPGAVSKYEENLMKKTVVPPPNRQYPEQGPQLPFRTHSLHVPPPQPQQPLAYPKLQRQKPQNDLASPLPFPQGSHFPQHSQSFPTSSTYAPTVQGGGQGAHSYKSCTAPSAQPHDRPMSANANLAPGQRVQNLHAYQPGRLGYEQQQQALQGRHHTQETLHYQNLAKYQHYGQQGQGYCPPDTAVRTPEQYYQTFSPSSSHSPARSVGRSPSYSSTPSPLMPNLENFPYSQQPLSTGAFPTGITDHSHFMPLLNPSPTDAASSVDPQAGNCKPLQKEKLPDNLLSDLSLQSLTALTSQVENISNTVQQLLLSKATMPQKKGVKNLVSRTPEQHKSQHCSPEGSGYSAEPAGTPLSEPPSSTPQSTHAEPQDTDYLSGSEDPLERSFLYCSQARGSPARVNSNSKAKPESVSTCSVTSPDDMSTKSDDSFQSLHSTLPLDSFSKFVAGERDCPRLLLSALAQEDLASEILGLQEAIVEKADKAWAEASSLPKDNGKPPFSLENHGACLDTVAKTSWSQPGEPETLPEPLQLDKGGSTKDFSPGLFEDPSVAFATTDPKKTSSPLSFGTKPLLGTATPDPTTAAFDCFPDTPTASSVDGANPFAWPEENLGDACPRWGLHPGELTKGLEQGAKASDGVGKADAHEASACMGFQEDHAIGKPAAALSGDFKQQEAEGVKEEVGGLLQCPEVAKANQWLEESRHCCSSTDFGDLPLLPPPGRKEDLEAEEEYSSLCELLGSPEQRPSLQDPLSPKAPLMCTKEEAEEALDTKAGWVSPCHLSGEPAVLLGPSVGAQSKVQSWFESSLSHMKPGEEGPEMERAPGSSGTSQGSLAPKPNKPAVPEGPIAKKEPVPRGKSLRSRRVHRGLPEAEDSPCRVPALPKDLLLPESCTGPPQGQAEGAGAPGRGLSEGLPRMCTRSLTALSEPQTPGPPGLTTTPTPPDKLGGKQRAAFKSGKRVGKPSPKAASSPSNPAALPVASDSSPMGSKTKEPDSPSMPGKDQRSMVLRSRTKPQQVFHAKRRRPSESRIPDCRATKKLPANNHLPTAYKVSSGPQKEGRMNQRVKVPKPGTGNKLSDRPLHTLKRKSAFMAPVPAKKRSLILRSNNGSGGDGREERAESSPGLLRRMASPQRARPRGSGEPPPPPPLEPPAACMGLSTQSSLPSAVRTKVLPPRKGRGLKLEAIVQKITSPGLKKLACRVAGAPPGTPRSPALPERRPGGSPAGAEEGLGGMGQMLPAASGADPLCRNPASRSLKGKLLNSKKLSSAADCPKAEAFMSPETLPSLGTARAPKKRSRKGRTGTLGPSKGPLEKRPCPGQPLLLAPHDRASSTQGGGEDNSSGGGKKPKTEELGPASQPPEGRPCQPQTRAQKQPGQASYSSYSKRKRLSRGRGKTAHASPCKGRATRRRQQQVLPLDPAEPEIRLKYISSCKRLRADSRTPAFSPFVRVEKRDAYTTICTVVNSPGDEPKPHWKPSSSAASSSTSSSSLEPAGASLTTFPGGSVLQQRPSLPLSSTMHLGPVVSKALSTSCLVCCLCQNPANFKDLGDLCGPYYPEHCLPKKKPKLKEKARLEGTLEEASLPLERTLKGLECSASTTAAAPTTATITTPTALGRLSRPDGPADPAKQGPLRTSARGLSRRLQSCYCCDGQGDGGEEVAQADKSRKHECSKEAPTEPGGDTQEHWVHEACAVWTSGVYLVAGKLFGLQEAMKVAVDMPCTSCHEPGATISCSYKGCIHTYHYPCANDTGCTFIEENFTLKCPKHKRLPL

Molecular target: Full-length Rai1 in pCMV-3xFLAG (mouse) (UniProt Q61818)
Experiment: co-IP; lysate of co-transfected HEK293 cells; 3xFLAG-Rai1 purified with EZview FLAG-M2 beads; western blot with rat anti-HA

B1: ZBTB17/MIZ1 in pCMV-HA (protein, UniProt Q13105 1-803)
chain: MDFPQHSQHVLEQLNQQRQLGLLCDCTFVVDGVHFKAHKAVLAACSEYFKMLFVDQKDVVHLDISNAAGLGQVLEFMYTAKLSLSPENVDDVLAVATFLQMQDIITACHALKSLAEPATSPGGNAEALATEGGDKRAKEEKVATSTLSRLEQAGRSTPIGPSRDLKEERGGQAQSAASGAEQTEKADAPREPPPVELKPDPTSGMAAAEAEAALSESSEQEMEVEPARKGEEEQKEQEEQEEEGAGPAEVKEEGSQLENGEAPEENENEESAGTDSGQELGSEARGLRSGTYGDRTESKAYGSVIHKCEDCGKEFTHTGNFKRHIRIHTGEKPFSCRECSKAFSDPAACKAHEKTHSPLKPYGCEECGKSYRLISLLNLHKKRHSGEARYRCEDCGKLFTTSGNLKRHQLVHSGEKPYQCDYCGRSFSDPTSKMRHLETHDTDKEHKCPHCDKKFNQVGNLKAHLKIHIADGPLKCRECGKQFTTSGNLKRHLRIHSGEKPYVCIHCQRQFADPGALQRHVRIHTGEKPCQCVMCGKAFTQASSLIAHVRQHTGEKPYVCERCGKRFVQSSQLANHIRHHDNIRPHKCSVCSKAFVNVGDLSKHIIIHTGEKPYLCDKCGRGFNRVDNLRSHVKTVHQGKAGIKILEPEEGSEVSVVTVDDMVTLATEALAATAVTQLTVVPVGAAVTADETEVLKAEISKAVKQVQEEDPNTHILYACDSCGDKFLDANSLAQHVRIHTAQALVMFQTDADFYQQYGPGGTWPAGQVLQAGELVFRPRDGAEGQPALAETSPTAPECPPPAE
  binding: binds
